In article PMC11751086:
No constants are given. Whether binding was seen depends on the method and setting. Binding seen in cells or lysates may run through a third protein. Some entries that bind do so weakly or less than the wild type.

Amino acid sequences for entries named in this document (tags omitted). A change or cut given only in a name is not applied to a line headed by its entry.
UniProt P10275: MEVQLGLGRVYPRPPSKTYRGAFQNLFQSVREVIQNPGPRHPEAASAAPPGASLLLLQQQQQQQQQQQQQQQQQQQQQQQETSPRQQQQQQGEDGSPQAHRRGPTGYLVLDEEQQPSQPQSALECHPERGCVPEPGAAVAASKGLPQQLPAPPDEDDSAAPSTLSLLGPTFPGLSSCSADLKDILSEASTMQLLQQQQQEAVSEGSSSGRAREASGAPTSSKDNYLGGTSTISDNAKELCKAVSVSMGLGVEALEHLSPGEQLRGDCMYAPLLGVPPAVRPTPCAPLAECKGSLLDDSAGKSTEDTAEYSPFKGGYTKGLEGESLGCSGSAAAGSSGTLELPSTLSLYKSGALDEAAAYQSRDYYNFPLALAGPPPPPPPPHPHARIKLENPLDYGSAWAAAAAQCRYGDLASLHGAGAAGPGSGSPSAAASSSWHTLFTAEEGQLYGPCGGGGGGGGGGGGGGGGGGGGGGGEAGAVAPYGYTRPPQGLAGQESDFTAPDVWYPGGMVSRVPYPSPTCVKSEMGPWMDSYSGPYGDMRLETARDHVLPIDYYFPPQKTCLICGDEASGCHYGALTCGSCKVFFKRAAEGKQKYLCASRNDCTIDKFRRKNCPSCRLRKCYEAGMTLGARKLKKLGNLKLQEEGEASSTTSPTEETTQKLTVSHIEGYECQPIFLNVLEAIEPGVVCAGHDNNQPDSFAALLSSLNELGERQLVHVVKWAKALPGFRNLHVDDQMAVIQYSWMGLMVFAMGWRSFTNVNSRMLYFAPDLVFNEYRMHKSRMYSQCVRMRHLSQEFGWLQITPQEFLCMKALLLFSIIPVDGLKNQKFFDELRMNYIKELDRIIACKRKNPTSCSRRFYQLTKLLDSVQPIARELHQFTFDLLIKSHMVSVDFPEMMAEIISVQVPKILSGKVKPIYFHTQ
UniProt P05556: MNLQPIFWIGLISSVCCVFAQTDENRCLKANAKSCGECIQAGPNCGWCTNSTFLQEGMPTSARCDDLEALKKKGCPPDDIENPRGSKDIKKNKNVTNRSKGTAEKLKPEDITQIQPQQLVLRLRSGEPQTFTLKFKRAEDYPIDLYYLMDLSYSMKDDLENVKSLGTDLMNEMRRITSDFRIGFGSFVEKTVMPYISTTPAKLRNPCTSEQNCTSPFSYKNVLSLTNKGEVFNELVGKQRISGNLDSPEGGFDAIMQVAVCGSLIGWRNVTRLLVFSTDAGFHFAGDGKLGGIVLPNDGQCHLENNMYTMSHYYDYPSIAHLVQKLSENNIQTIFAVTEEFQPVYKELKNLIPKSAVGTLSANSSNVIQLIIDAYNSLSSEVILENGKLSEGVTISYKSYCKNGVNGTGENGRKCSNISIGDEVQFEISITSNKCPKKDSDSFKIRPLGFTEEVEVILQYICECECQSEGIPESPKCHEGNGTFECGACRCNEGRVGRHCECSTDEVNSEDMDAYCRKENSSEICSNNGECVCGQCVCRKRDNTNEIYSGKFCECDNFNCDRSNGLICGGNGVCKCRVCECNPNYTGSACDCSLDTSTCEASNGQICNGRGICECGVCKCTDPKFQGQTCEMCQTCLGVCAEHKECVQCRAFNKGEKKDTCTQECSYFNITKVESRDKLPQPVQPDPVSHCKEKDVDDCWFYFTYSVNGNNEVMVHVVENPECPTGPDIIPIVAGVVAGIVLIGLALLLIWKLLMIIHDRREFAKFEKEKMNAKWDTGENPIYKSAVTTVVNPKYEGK

Biological target: androgen receptor (human (endogenous in AMM16)) (UniProt P10275)
Test: co-IP; AMM16 cells unchallenged or challenged for 20 min with 10 nM R1881, in the absence or presence of bicalutamide; lysate proteins immune-precipitated with anti-AR or control (ctrl IgG) antibodies; co-precipitated proteins revealed by WB

binding: binds
Substance: β1 integrin (from UniProt P05556 21-798) (receptor)
